From publication PMC8706149 (International Journal of Molecular Sciences, 2021)

Assay: Steady-state fluorescence in buffer and water/organic solvent mixtures
Format: physicochemical
Conditions: fluorophore

| SMILES | Stoke shift |
| --- | --- |
| Nc1ccc2nc(C3=N[C@@H](C(=O)O)CS3)sc2c1 [amino-Luciferin, aminoluciferin, reference compound] | ~145 nm |
| O=C(O)[C@H]1CSC(c2nc3ccc(O)cc3s2)=N1 [Free Luc, luciferin] | about 210 nm |
